According to publication doi:10.1101/2022.10.09.511391:
No constants are given. Whether binding was seen depends on the method and setting. Binding seen in cells or lysates may run through a third protein. Here binding means that the protein was enriched with, or labelled near, the bait; the list need not be complete. Sequences can lack the tags named with a protein.

Biological target: T1, Flag-TRB3 (UniProt Q8K4K2)
T1 sequence: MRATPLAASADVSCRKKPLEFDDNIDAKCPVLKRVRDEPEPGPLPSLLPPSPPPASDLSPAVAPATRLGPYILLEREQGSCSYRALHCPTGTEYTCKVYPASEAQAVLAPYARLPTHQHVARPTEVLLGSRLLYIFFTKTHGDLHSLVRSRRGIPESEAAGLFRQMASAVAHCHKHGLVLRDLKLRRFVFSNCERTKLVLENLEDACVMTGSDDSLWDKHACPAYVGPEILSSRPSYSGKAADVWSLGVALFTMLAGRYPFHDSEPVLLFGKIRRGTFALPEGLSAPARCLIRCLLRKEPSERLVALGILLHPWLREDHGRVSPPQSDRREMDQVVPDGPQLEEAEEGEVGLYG
Experiment: affinity purification with mass spectrometry

B1: Flightless-homolog 1 (Fli1), endogenous in Min6 cells (protein, UniProt Q9JJ28 1-1271)
chain: MEATGVLPFVRGVDLSGNDFKGGYFPENVKAMTSLRWLKLNRTGLCYLPEELAALQKLEHLSVSHNHLTTLHGELSSLPSLRAIVARANSLKNSGVPDDIFKLDDLSVLDLSHNQLTECPRELENAKNMLVLNLSHNGIDSIPNQLFINLTDLLYLDLSENRLESLPPQMRRLVHLQTLVLNGNPLLHAQLRQLPAMMALQTLHLRNTQRTQSNLPTSLEGLSNLSDVDLSCNDLTRVPECLYTLPSLRRLNLSSNQIAELSLCIDQWVHLETLNLSRNQLTSLPSAICKLTKLKKLYLNSNKLDFDGLPSGIGKLTSLEEFMAANNNLELIPESLCRCPKLKKLVLNKNRLVTLPEAIHFLTEIQVLDVRENPSLVMPPKPADRTAEWYNIDFSLQNQLRLAGASPATVAAAAAVGSGSKDPLARKMRLRRRKDSAQDVQAKQVLKGMSDVAQEKNKNQEESIDARAPGGKVRRWDQGLEKPRLDYSEFFTEDVGQLPGLTIWQIENFVPVLVEEAFHGKFYEADCYIVLKTFLDDSGSLNWEIYYWIGGEATLDKKACSAIHAVNLRNYLGAECRTVREEMGDESEEFLQVFDNDISYIEGGTASGFYTVEDTHYVTRMYRVYGKKNIKLEPVPLKGSSLDPRFVFLLDQGLDIYVWRGAQATLSNTTKARLFAEKINKNERKGKAEITLLVQGQEPPGFWDVLGGEPSEIKNHVPDDFWPPQPKLYKVGLGLGYLELPQINYKLSVEHKKRPKVELMPGMRLLQSLLDTRCVYILDCWSDVFIWLGRKSPRLVRAAALKLGQELCGMLHRPRHTVVSRSLEGTEAQVFKAKFKNWDDVLTVDYTRNAEAVLQGQGLSGKVKRDTEKTDQMKADLTALFLPRQPPMPLAEAEQLMEEWNEDLDGMEGFVLEGRKFTRLPEEEFGHFYTQDCYVFLCRYWVPVEYEEEEKTEDKEGKASAEAREGEEAAAEAEEKQPEEDFQCIVYFWQGREASNMGWLTFTFSLQKKFESLFPGKLEVVRMTQQQENPKFLSHFKRKFIIHRGKRKVTQGTLQPTLYQIRTNGSALCTRCIQINTDSSLLNSEFCFILKVPFESEDNQGIVYAWVGRASDPDEAKLAEDILNTMFDASYSKQVINEGEEPENFFWVGIGAQKPYDDDAEYMKHTRLFRCSNEKGYFAVTEKCSDFCQDDLADDDIMLLDNGQEVYMWVGTQTSQVEIKLSLKACQVYIQHTRSKEHERPRRLRLVRKGNEQRAFTRCFHAWSTFRQAPA
binding: binds
